Results are given in words; binding and its absence hold for the method and conditions named. Binding seen in cells or lysates may run through a third protein. Here binding means that the protein was enriched with, or labelled near, the bait; the list need not be complete.
Biological target: AMPK-α1 (human (endogenous in melanoma cell lines)) (UniProt Q13131)
Assay: affinity purification with mass spectrometry; anti-AMPK-α1 immunoprecipitates of A2058 (Cy3) and A2058BR (Cy5) cells; 2D-DIGE and MALDI-TOF MS, MASCOT search

Chains of the proteins cited; added tags and fusions are not shown.
UniProt Q13131: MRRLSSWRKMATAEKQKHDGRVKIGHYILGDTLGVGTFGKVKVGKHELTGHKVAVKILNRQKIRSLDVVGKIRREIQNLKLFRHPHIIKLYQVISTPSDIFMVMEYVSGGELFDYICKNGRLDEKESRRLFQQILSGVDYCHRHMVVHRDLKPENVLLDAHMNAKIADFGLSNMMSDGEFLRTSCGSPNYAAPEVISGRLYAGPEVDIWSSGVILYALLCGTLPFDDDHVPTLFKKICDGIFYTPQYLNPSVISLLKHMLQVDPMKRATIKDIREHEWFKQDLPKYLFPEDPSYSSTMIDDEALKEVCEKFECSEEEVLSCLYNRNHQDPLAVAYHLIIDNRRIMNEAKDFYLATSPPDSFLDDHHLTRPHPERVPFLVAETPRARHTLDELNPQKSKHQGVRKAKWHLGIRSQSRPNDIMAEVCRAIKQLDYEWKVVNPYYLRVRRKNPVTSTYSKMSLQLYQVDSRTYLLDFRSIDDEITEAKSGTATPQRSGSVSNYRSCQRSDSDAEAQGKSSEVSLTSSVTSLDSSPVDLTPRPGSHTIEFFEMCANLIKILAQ
UniProt Q7L0R7: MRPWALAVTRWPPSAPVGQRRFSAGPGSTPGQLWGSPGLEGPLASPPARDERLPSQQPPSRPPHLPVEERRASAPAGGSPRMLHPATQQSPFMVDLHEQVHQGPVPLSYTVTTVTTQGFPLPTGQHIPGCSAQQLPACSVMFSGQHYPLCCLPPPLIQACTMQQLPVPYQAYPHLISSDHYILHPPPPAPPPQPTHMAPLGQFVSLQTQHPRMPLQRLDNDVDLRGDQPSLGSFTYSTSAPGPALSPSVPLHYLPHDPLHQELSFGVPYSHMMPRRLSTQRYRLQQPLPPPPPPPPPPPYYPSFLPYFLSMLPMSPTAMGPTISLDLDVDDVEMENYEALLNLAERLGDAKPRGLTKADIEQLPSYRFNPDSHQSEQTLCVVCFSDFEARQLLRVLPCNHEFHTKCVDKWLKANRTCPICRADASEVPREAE

Substance: RING finger 44 (RNF44) (from UniProt Q7L0R7 1-432)
- binding: binds

Source: article PMC5709618
